# Measured values: patent US20180230398A1, “PERFUME SYSTEMS” (The Procter & Gamble Company, priority 2014, published 2018)
# Counter-ions that a name gives are not always drawn.
# Assay: Character description (odour character) of the PRMs of Table 1
# Conditions: odour character in words
row,SMILES,Character description
1,"C/C=C/C(=O)C1C(C)C(OC(C)=O)C=CC1(C)C (stereo not drawn) [Molecule 9, 5-(but-2-enoyl)-4,4,6-trimethylcyclohex-2-en-1-yl acetate]",apple-rose ketone smell
2,"CCC(=O)C1(CCC=C(C)C)CCC1 [Molecule 10, 1-(1-(4-methylpent-3-en-1-yl)cyclobutyl) propan-1-one]","fruity (pineapple, currant- grenadine), minty"
3,"CCCOc1cc(C=O)ccc1OC [Molecule 29, 4-methoxy-3-propoxybenz-aldehyde]","vanilla, caramel"
4,"COc1ccc(C=O)cc1OC(C)C [Molecule 30, 3-isopropoxy-4-methoxybenz-aldehyde]","nutty, roasted"
5,"CCOc1cc(C(=O)CC)ccc1O [Molecule 31, 1-(3-ethoxy-4-hydroxyphenyl) propan-1-one]","sweet vanilla, heliotropine"
6,"CCCCC(=O)c1ccc(O)c(OCC)c1 [Molecule 32, 1-(3-ethoxy-4-hydroxyphenyl) pentan-1-one]",sweet powder
7,"CCCOc1cc(C=O)ccc1O [Molecule 33, 4-hydroxy-3-propoxybenz-aldehyde]","sweet, medicinal, mint"
8,"CCOc1cc(C(=O)CC(C)C)ccc1O [Molecule 34, 1-(3-ethoxy-4-hydroxyphenyl)-3-methylbutan-1-one]","sweet balsamic, buttery"
9,"CCOc1cc(C(=O)C(C)CC)ccc1O (stereo not drawn) [Molecule 35, 1-(3-ethoxy-4-hydroxyphenyl)-2-methylbutan-1-one]","sweet, almond, green"
10,"CCOc1cc(C(=O)C(C)(C)C)ccc1O [Molecule 36, 1-(3-ethoxy-4-hydroxyphenyl)-2,2-dimethylpropan-1-one]","sweet, dusty"
11,"CCOc1cc(C(=O)C(C)C)ccc1O [Molecule 37, 1-(3-ethoxy-4-hydroxyphenyl)-2-methylpropan-1-one]","sweet, phenolic, woody"
12,"O=Cc1ccc(O)c(OCC2CC2)c1 [Molecule 38, 3-(cyclopropyl-methoxy)-4-hydroxybenz-aldehyde]","sweet, floral, anisic"
13,"COc1ccc(C=O)cc1OCC(C)C [Molecule 39, 3-isobutoxy-4-methoxybenz-aldehyde]",sweet
14,"CC(C)OC(=O)[C@@H]1CCC(C)[C@@H](C)C1 (stereo partly drawn) [Molecule 62, (R,S)-isopropyl 3,4-dimethylcyclohex-anecarboxylate]",fruity (banana)
15,"CCCOC(=O)[C@@H]1CCC(C)[C@@H](C)C1 (stereo partly drawn) [Molecule 65, (R,S)-propyl 3,4-dimethylcyclohex-anecarboxylate]","fruity, floral"
16,"CCCCOC(=O)[C@@H]1CCC(C)[C@@H](C)C1 (stereo partly drawn) [Molecule 67, (R,S)-butyl 3,4-dimethylcyclohex-anecarboxylate]","fruity, floral"
17,"CC1CC[C@@](C)(CO)C[C@@H]1C (stereo partly drawn) [Molecule 68, (R,S)-(1,3,4-trimethylcyclohex-yl)methanol]","herbal, woody, clean"
18,"CCC[C@]1([C@@H](C)O)CCC(C)C(C)C1 (stereo partly drawn) [Molecule 69, (R,S)-1-(3,4-dimethyl-1-propylcyclohexyl) ethanol]","terpenic, earthy"
19,"COC(=O)[C@@H]1CCC(C)[C@@H](C)C1 (stereo partly drawn) [Molecule 70, (R,S)-methyl 3,4-dimethylcyclohex-anecarboxylate]",fruity (pineapple)

row,SMILES,Character description
1,"COC(=O)[C@]1(C)CCC(C)[C@@H](C)C1 (stereo partly drawn) [Molecule 71, (R,S)-methyl 1,3,4-trimethylcyclohex-anecarboxylate]",fruity (grapefruit)
2,"CC1CC[C@@H](CO)C[C@@H]1C (stereo partly drawn) [Molecule 76, (R,S)-(3,4-dimethylcyclohex-yl)methanol]",green (apple)
3,"CC1CC[C@@](C)(COC=O)C[C@@H]1C (stereo partly drawn) [Molecule 77, (R,S)-(1,3,4-trimethyl-cyclohexyl)meth-yl formate]","violet, floral"
4,"CC(=O)OC[C@]1(C)CCC(C)[C@@H](C)C1 (stereo partly drawn) [Molecule 78, (R,S)-(1,3,4-trimethyl-cyclohexyl)meth-yl acetate]","fruity, herbal"
5,"CC(=O)OC[C@@H]1CCC(C)[C@@H](C)C1 (stereo partly drawn) [Molecule 79, (R,S)-(3,4-dimethyl-cyclohexyl)meth-yl acetate]","rose, fruity"
6,"CC(=O)O[C@H](C)[C@@]1(C)CCC(C)=C(C)C1 [Molecule 80, (R,S)-1-(1,3,4-trimethylcyclohex-3-enyl)ethyl acetate]","fruity, herbal, clean"
7,"CC(=O)O[C@H](C)[C@@]1(C)CCC(C)C(C)C1 (stereo partly drawn) [Molecule 81, (R,S)-1-(1,3,4-trimethylcyclohex-yl)ethyl acetate]","balsamic, sweet"
8,"CC1=C(C)C[C@](C)([C@@H](C)O)C(C)C1 (stereo partly drawn) [Molecule 86, (R,S)-1-(1,3,4,6-tetra-methylcyclohex-3-enyl)ethanol]",lilac
9,"CC(=O)[C@]1(C)CC(C)C(C)C[C@@H]1C (stereo partly drawn) [Molecule 87, (R,S)-1-(1,2,4,5-tetramethylcyclo-hexyl)ethanone]","woody, fruity"
10,"CC1CC(C)[C@@](C)([C@@H](C)O)CC1C (stereo partly drawn) [Molecule 88, (R,S)-1-(1,2,4,5-tetramethylcyclo-hexyl)ethanol]","sweet, fruity"
11,"CC(C)=C1CC[C@H](C)[C@H]1COC=O [Molecule 90, (R,S)-(2-methyl-5-(propan-2-ylidene)cyclopent-yl)methyl formate]",woody
12,"CC(=O)C1(C)CCCCC1C (stereo not drawn) [Molecule 91, 1-(1,2-dimethyl-cyclohexyl)ethan-one]","woody, earthy camphoraceous"
13,"CC(=O)OC[C@H]1C(=C(C)C)CC[C@@H]1C [Molecule 92, (R,S)-(2-methyl-5-(propan-2-ylidene)cyclopent-yl)methyl acetate]","woody, violet"
14,"CC1CC=CC[C@]1(C)[C@@H](C)O (stereo partly drawn) [Molecule 93, (R,S)-1-(1,6-dimethylcyclohex-3-enyl)ethanol]",earthy (moss)
15,"CC1=C(C)C[C@](C)([C@@H](C)OC=O)C(C)C1 (stereo partly drawn) [Molecule 94, (R,S)-1-(1,3,4,6-tetramethyl-cyclohex-3-enyl)ethyl formate]","violet, woody"
16,"CC1CC=CC[C@]1(C)[C@@H](C)OC=O (stereo partly drawn) [Molecule 95, (R,S)-1-(1,6-dimethylcyclohex-3-enyl)ethyl formate]","(soft) woody, spicy"
17,"CC(C)=C1CC[C@H](C)[C@H]1C(C)(C)O [Molecule 96, (R,S)-2-(2-methyl-5-(propan-2-ylidene)cyclopent-yl)propan-2-ol]","woody, minty"
18,"CC1CCCC[C@]1(C)[C@@H](C)O (stereo partly drawn) [Molecule 97, (R,S)-1-(1,2-dimethyl-cyclohexyl)ethanol]","woody, earthy"
19,"CC1CC2(C)C(C)CC1(C)OC2C (stereo not drawn) [Molecule 98, 1,3,4,6,8-pentamethyl-2-oxa-bicyclo[2.2.2] octane]","herbal, camphor"

row,SMILES,Character description
1,"CC(=O)O[C@H](C)[C@@]1(C)CC=CCC1C (stereo partly drawn) [Molecule 99, (R,S)-1-(1,6-dimethylcyclohex-3-enyl)ethyl acetate]","violet, fruity"
2,"COC(=O)C(C)(C)CC=C(C)C [Molecule 100, methyl 2,2,5-trimethylhex-4-enoate]","floral (chamomile), aromatic, citrus"
3,"CC(C)=CCC(C)(C)CO [Molecule 101, 2,2,5-trimethylhex-4-en-1-ol]","lilac, clean"
4,"COC(=O)C(C)(C)Cc1cccc(C)c1 [Molecule 102, methyl 2,2-dimethyl-3-m-tolylpropanoate]","cyclamen, herbal"
5,"CC(C)=CCC(C)(C)COC=O [Molecule 103, 2,2,5-trimethylhex-4-enyl formate]","citrus, gun powder"
6,"Cc1cccc(CC(C)(C)COC=O)c1 [Molecule 104, 2,2-dimethyl-3-m-tolylpropyl formate]","citrus, lemon"
7,"CCOC(=O)[C@@H]1CCC(C)[C@@H](C)C1 (stereo partly drawn) [Molecule 106, (R,S)-ethyl 3,4-dimethylcyclohex-anecarboxylate]","fruity (chewing gum), pineapple- strawberry- red apple"
8,"CC(=O)OCC(C)(C)CC=C(C)C [Molecule 107, 2,2,5-trimethylhex-4-enyl acetate]","citrus, bergamot"
9,"COC(=O)C(C)(C)Cc1ccc(C)cc1 [Molecule 108, methyl 2,2-dimethyl-3-p-tolylpropanoate]","mushroom, chervil"
10,"COC(=O)C(C)(C)Cc1ccccc1C [Molecule 109, methyl 2,2-dimethyl-3-o-tolylpropanoate]","saffron, woody"
11,"Cc1cccc(CC(C)(C)C(C)(C)O)c1 [Molecule 110, 2,3,3-trimethyl-4-m-tolylbutan-2-ol]",dark chocolate
12,"CC(=O)OCC(C)(C)Cc1cccc(C)c1 [Molecule 111, 2,2-dimethyl-3-m-tolylpropyl acetate]",citrus
13,"Cc1ccccc1CC(C)(C)CO [Molecule 112, 2,2-dimethyl-3-o-tolylpropan-1-ol]",disinfectant (toilet bowl cleaner)
14,"CC1=C(C)CC(C(=O)OCC(C)C)CC1 (stereo not drawn) [Molecule 113, isobutyl 3,4-dimethylcyclohex-3-enecarboxylate]","green, garlic, fruity, citrus"
15,"CC(C)COC(=O)C1CCC(C)C(C)C1 (stereo not drawn) [Molecule 114, isobutyl 3,4-dimethylcyclohex-anecarboxylate]","fruity, butyric"
16,"Cc1ccc(CC(C)(C)CO)cc1 [Molecule 115, 2,2-dimethyl-3-p-tolylpropan-1-ol]","violet, minty"
17,"CC1=C(C)CC(C(=O)OC(C)(C)C)CC1 (stereo not drawn) [Molecule 116, tert-butyl 3,4-dimethylcyclohex-3-enecarboxylate]","herbal, aromatic"
18,"CC1CC[C@@H](C(=O)OC(C)(C)C)C[C@@H]1C (stereo partly drawn) [Molecule 117, (R,S)-tert-butyl 3,4-dimethylcyclohex-anecarboxylate]","clean, ozonic"
19,"CC1=C(C)CC(c2ccccc2)C(C=O)C1 (stereo not drawn) [Molecule 118, 4,5-dimethyl-1,2,3,6-tetrahydro-[1,1′-biphenyl]-2-carbaldehyde]","floral, fruity, cherry"
